Here are results for two molecules from US9981897B2, “Ethers of bis(hydroxymethyl)cyclohexanes” (BASF SE, priority 2011, dated 2018).

The nature of the data set: odor (sensory properties) of the substances. The conditions noted are these: odor impression in words. An excerpt: The substances according to the present invention have in particular advantageous sensory properties, in particular odor.
Thus, substances according to the invention have the following odors:
Intensive odor impressions are to be understood as meaning those properties of aroma chemicals which permit a precise perception even in very low gas-space concentrations. The intensity can be ascertained via a threshold-value determination. A threshold value is the concentration of a substance in the relevant gas space at which an odor impression can just still be perceived by a representative test panel, although it no longer has to be defined. The substance class known as probably one of the most odor-intensive, i.e. those with very low threshold values, are thiols, whose threshold value is in the ppb/cbm range. It is the aim of the search for new aroma chemicals to find substances with the lowest possible threshold value in order to permit the lowest possible use concentration. The closer one comes to this target, the more one talks of “intensive” odor substances or aroma chemicals.
“Advantageous sensory properties” is a hedonic expression which describes the niceness and preciseness of an odor impression conveyed by an aroma chemical.
“Niceness” and “preciseness” are terms which are familiar to the person skilled in the art, a perfumer. Niceness generally refers to a spontaneously brought about, positively perceived, pleasant sensory impression. […] “Nice” can also describe the odor of musk or sandalwood.
“Preciseness” generally refers to a spontaneously brought about sensory impression which—for the same test panel—brings about a reproducibly identical reminder of something specific.

As for `CCOC[C@H]1CC[C@H](COCC)CC1` [Compound I-trans, Trans-1,4-Cyclohexanedimethanol Diethyl Ether], the odor entry is listed as “weak, low-intensity odor towards green, coumarin, very slight ozone-like smell”. In addition, the odor result (listed as trans-1,4-bis(ethoxymethyl)cyclohexane) is listed as “low-intensity odor”.
For `CCOCC1CCC(CO)CC1` (stereo not drawn) [monoethyl ether of 1,4-bis(hydroxymethyl)cyclohexane, reference compound], the odor entry was “odorless”.
